From article PMC6640709, “Selection and Characterization of a Nanobody Biosensor of GTP-Bound RHO Activities” (Antibodies, 2019)
Results are given in words; binding and its absence hold for the method and conditions named. In cells and extracts the contact can be indirect. A result given as binding can be weak or reduced; the word gives no strength.

Amino acid sequences for entries named in this document (tags omitted). A change or cut given only in a name is not applied to a line headed by its entry.
UniProt Q9BST9: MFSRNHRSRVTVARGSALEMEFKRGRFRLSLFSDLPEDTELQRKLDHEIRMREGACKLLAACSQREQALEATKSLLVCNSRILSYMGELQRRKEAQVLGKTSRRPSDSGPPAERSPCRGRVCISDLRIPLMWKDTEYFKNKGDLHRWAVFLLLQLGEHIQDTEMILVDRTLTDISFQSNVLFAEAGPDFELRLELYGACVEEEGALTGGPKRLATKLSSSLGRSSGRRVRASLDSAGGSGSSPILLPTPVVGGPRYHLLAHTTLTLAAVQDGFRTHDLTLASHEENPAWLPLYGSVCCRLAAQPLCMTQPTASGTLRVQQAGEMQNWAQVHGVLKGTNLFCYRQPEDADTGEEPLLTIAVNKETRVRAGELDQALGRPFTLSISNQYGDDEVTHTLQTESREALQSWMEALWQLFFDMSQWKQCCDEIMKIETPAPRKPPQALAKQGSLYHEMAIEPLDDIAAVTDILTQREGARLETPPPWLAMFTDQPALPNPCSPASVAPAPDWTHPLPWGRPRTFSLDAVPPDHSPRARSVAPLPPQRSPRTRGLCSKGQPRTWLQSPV
UniProt P61586: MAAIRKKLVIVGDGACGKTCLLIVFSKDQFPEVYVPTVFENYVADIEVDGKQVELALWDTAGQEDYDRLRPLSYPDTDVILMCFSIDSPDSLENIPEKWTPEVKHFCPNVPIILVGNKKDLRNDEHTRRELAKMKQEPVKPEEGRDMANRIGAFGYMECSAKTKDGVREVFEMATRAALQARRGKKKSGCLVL

Biological target: GST-RHOTEKIN RHO binding domain (RBD) (UniProt Q9BST9)
Experiment: pull-down; lysates of HeLa cells expressing hs2dAb NR, RH12 or RH57 incubated with GST-RBD beads, 45 min 4 °C; blot anti-RHOA; only the target purified

- binding: binds
Substance: endogenous RHOA (from UniProt P61586 1-193)
